In publication doi:10.1101/2022.11.28.518246:
These are yes or no findings as the source states them, for the method shown. Binding seen in cells or lysates may run through a third protein. Some entries that bind do so weakly or less than the wild type. Sequences can lack the tags named with a protein.

Molecular target: T1, wild-type iRhom2-3XHA (human) (UniProt Q6PJF5)
T1 sequence: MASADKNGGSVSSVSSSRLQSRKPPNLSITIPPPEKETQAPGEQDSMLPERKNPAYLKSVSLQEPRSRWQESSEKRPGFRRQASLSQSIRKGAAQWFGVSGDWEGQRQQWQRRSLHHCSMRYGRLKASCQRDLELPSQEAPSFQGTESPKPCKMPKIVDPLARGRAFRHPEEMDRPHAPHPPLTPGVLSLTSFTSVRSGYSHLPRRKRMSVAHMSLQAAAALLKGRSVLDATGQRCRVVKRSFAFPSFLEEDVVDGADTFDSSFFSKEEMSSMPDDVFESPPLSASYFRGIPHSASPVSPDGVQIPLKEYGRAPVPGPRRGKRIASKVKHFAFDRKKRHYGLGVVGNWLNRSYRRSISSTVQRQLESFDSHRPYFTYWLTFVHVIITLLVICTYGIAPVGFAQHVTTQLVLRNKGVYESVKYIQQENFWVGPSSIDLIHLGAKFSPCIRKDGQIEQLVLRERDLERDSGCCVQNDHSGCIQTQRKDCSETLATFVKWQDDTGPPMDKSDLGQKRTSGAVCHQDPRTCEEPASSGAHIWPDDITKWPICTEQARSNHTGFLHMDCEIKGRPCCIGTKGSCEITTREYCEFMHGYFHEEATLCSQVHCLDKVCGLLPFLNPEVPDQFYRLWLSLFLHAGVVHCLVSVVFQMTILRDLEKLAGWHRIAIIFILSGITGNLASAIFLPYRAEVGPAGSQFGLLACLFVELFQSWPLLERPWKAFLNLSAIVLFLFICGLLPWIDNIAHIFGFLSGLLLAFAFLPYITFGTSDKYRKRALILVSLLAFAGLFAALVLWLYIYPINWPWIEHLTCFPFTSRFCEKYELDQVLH
Assay: co-IP

- binding: binds
B1: SEC11A-Myc-FLAG (enzyme, UniProt P67812 1-179)
chain: MLSLDFLDDVRRMNKRQLYYQVLNFGMIVSSALMIWKGLMVITGSESPIVVVLSGSMEPAFHRGDLLFLTNRVEDPIRVGEIVVFRIEGREIPIVHRVLKIHEKQNGHIKFLTKGDNNAVDDRGLYKQGQHWLEKKDVVGRARGFVPYIGIVTILMNDYPKFKYAVLFLLGLFVLVHRE
